{"source": "PubChem BioAssay AID504467", "about": "(National Center for Advancing Translational Sciences (NCATS), 2011)", "note": "Among all 330,000 compounds or so, about 7,700 (2.3%) were called active. The shares of active, inactive and inconclusive entries below differ from those in the screen. The call rests on the fitted dose curve; in most records, active means well fitted inhibition curve with a large enough effect; inconclusive means small, poorly fitted or top-dose-only effect, or effect the other way; inactive means flat fitted curve, though single readings scatter. A potency beside an inconclusive call is a rough fit, not a confirmed value. On the % scale 0 is the no-effect control and ±100 the full control effect; potency means the concentration at half of the fitted maximal effect.", "data": [{"test": "qHTS screen for small molecules that inhibit ELG1-dependent DNA repair in human embryonic kidney (HEK293T) cells expressing luciferase-tagged ELG1; further: nearly all actives have a fitted effect of over 55% in size", "details": "HEK293T ELG1-luciferase reporter, luminescence, 16 h, DNA damage induced by 5-fluorouridine; activity change, negative = inhibition: at 46.1 µM (top of the series)", "how_it_was_run": "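In this reporter screen, reduction of luminescence relative to DMSO vehicle indicated activity. Compounds and 5-fluorouridine were added together to 2,000 cells per well, incubated for 16 hr at 37 °C, then developed with ONE-Glo.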", "values": [{"molecule": "Cc1c(NC(=O)c2cc(-c3ccc(F)cc3)on2)c(=O)n(-c2ccccc2)n1C", "activity change, negative = inhibition": "inactive: 11.4%"}, {"molecule": "CC(C)CC1Nc2ncnc(N3CCN(c4ccccc4)CC3)c2N(Cc2ccc(Br)cc2)C1=O", "note": "(stereo not given)", "activity change, negative = inhibition": "inactive: -1.77%"}, {"molecule": "COc1cc2c(C(=O)NCc3ccc(C)o3)cn(CC(C)C)c(=O)c2cc1OC", "Potency": "inconclusive: 23.1 µM [inhibitor, partial curve]"}, {"molecule": "O=C(Nc1nnc(Cc2ccccc2)s1)C1CCN(C(=O)c2ccco2)CC1", "activity change, negative = inhibition": "inactive: 0.505%"}, {"molecule": "CCCN1Cc2cccc(C(=O)NCc3cccs3)c2C1=O", "Potency": "inconclusive: 29.1 µM [inhibitor, single point]"}, {"molecule": "Clc1cccc(-c2nc(-c3ccccn3)no2)c1", "Potency": "inconclusive: 0.366 µM [activator, full curve]"}, {"molecule": "Cc1ccc(-c2ccc(SCC(=O)NC3CCCCC3)nn2)cc1", "Potency": "inconclusive: 10.3 µM [activator, partial curve]"}, {"molecule": "CCC(=O)c1ccc(OCC(O)CN2CCN(c3ccc(F)cc3)CC2)cc1", "note": "(stereo not given)", "activity change, negative = inhibition": "inactive: -8.3%"}, {"molecule": "O=C(Nc1sc2c(c1C(=O)O)CCCC2)c1cccc(Cl)c1", "Potency": "inconclusive: 8.2 µM [activator, partial curve]"}, {"molecule": "Cc1ccc(CC2C(=O)N(c3ccc(C)cc3)C(=O)C2C)cc1", "note": "(stereo not given)", "Potency": "inconclusive: 32.6 µM [activator, partial curve, poor fit]"}, {"molecule": "CC(C)(C)OC(=O)N1CCC(C(=O)Nc2ccc3c(c2)CCC3)CC1", "Potency": "inconclusive: 16.4 µM [activator, partial curve]"}, {"molecule": "O=C(CNC(=S)NC(=O)c1cccs1)c1ccccc1", "Potency": "inconclusive: 16.4 µM [activator, partial curve]"}, {"molecule": "COCCNS(=O)(=O)c1cc(-c2nn(C)c(=O)c3ccccc23)ccc1C", "activity change, negative = inhibition": "inactive: 19.6%"}, {"molecule": "O=S(=O)(c1ccccc1)N1CCN(S(=O)(=O)N2CCCCCC2)CC1", "activity change, negative = inhibition": "inactive: -4.01%"}, {"molecule": "Cc1ccc2c(C)c(C(=O)N(Cc3cccs3)C3CCS(=O)(=O)C3)oc2c1", "note": "(stereo not given)", "Potency": "inconclusive: 32.6 µM [inhibitor, single point]"}, {"molecule": "Fc1cccc(Nc2nc(-c3ccncc3)nc3ccccc23)c1", "Potency": "inconclusive: 2.06 µM [inhibitor, full curve]"}, {"molecule": "CCN1CC(=O)Nc2cc(S(=O)(=O)N3CCOCC3)ccc21", "activity change, negative = inhibition": "inactive: 1.69%"}, {"molecule": "O=C(CCC1CCCCC1)NCCN1C2=NC[C@@H](Cc3ccccc3)N2C[C@H]1Cc1ccc(O)cc1", "activity change, negative = inhibition": "inactive: -2.52%"}, {"molecule": "Cc1ccc(C)c(N(CC(=O)NC2CCCC2)C(=O)c2cc3cc4cccc(C)c4nc3s2)c1", "Potency": "inconclusive: 0.92 µM [inhibitor, partial curve, poor fit]"}, {"molecule": "COc1ccc(OC)c(/C=C/C(=O)OCC(=O)N2CCCC2)c1", "activity change, negative = inhibition": "inactive: 0.602%"}]}]}
